± gives the standard deviation of the averaged measurements. Only a part is listed here, and it is no random draw.
Compound: Nc1ncnc2c1ncn2[C@@H]1O[C@H](COP(=O)(O)OP(=O)(O)OP(=O)(O)O)[C@@H](O)[C@H]1O [adenosine triphosphate]
Test: NP40-soluble protein abundance relative to vehicle (solubility fold change) (ratio); higher = more soluble protein in presence of ATP
Method in brief: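 Values are fold changes against the detergent-processed vehicle, based on vsn-normalised intensities. Jurkat crude lysate was treated at eight concentrations from 0.1 to 10 mM (10 min at room temperature, then 3 min at 37 °C), solubilised with 0.8% NP40 and benzonase, ultracentrifuged and analysed by TMT-labelled LC-MS/MS over three independent experiments.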

Protein sequences, listed by entry. Tags and fused reporters are not part of them. Lines headed by an entry give the natural chain unless they say otherwise; changes in a name come on top.
UniProt Q96KA5: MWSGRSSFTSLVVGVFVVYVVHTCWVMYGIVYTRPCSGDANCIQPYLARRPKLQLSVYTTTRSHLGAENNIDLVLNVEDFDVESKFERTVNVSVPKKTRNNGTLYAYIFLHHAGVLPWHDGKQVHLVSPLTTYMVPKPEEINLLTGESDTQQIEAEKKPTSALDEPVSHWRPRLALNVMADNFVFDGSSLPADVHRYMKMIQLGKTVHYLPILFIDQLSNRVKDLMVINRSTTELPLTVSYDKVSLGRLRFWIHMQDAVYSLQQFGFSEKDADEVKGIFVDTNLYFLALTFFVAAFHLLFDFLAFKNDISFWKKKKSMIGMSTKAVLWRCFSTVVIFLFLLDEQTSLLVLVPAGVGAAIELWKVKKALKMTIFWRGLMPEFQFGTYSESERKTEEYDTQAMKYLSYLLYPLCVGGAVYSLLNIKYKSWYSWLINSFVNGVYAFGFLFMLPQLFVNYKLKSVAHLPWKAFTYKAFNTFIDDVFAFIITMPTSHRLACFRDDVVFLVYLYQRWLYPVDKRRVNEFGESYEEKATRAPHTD
UniProt Q96QT6: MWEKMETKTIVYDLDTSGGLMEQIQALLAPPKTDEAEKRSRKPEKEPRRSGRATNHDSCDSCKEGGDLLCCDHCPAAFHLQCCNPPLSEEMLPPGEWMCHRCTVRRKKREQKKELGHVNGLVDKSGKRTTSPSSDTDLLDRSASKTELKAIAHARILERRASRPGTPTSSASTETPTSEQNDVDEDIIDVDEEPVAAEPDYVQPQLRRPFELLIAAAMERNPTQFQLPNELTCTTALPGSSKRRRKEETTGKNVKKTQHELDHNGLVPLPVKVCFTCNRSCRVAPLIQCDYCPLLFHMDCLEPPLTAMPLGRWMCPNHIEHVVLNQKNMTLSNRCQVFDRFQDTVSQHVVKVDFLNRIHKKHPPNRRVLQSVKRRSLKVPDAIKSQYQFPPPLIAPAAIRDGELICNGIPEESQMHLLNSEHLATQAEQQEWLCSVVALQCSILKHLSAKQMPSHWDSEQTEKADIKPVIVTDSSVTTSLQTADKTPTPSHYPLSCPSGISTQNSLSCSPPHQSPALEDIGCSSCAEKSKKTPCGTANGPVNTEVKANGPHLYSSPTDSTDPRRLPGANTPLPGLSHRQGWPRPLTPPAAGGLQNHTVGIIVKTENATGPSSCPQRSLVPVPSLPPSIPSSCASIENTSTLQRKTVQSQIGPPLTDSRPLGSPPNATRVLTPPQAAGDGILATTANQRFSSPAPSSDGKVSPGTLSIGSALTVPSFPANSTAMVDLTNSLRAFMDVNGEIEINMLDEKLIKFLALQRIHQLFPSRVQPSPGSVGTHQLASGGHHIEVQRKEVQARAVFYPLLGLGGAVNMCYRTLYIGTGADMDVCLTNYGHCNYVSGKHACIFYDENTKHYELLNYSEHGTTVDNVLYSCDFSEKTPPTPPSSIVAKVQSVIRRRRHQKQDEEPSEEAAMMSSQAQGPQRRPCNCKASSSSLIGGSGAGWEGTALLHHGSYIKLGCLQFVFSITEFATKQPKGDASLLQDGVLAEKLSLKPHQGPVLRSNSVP
UniProt Q96E14: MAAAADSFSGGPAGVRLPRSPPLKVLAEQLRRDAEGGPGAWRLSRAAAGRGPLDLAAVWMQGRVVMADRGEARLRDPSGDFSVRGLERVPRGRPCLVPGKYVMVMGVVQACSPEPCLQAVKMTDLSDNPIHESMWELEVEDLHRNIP
UniProt Q96EB6: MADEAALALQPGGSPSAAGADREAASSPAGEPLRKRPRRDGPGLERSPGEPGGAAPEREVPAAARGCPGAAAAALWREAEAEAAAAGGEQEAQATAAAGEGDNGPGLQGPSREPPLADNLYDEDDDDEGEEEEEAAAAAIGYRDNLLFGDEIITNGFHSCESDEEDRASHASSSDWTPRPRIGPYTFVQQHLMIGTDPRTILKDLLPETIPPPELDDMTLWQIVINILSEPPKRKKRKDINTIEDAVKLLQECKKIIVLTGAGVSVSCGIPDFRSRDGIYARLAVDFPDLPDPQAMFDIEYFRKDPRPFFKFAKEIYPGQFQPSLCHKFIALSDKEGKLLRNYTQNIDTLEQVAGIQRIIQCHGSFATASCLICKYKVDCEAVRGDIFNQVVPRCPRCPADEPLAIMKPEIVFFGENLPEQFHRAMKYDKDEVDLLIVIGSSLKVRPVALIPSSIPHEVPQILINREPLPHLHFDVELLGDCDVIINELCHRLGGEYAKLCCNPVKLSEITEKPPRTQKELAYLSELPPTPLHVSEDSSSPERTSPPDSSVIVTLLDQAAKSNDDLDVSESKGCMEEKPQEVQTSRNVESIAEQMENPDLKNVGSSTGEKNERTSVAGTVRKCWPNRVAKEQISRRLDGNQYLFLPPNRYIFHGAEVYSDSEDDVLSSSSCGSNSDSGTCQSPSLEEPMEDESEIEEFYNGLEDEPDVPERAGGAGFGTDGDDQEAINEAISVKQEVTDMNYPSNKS
UniProt Q96GA3: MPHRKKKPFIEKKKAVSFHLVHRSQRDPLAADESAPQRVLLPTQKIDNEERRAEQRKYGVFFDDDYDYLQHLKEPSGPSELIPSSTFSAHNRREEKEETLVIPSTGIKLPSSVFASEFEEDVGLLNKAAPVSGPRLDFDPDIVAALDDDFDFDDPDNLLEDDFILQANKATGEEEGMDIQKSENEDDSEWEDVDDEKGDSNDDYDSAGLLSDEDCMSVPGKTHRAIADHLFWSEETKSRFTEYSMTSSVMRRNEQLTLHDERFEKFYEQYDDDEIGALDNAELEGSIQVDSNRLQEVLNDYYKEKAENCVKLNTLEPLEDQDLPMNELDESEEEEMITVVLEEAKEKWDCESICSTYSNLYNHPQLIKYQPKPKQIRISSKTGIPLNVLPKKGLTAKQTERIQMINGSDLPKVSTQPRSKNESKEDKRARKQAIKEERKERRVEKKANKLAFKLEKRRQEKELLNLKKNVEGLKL
UniProt Q96HW7, whole entry: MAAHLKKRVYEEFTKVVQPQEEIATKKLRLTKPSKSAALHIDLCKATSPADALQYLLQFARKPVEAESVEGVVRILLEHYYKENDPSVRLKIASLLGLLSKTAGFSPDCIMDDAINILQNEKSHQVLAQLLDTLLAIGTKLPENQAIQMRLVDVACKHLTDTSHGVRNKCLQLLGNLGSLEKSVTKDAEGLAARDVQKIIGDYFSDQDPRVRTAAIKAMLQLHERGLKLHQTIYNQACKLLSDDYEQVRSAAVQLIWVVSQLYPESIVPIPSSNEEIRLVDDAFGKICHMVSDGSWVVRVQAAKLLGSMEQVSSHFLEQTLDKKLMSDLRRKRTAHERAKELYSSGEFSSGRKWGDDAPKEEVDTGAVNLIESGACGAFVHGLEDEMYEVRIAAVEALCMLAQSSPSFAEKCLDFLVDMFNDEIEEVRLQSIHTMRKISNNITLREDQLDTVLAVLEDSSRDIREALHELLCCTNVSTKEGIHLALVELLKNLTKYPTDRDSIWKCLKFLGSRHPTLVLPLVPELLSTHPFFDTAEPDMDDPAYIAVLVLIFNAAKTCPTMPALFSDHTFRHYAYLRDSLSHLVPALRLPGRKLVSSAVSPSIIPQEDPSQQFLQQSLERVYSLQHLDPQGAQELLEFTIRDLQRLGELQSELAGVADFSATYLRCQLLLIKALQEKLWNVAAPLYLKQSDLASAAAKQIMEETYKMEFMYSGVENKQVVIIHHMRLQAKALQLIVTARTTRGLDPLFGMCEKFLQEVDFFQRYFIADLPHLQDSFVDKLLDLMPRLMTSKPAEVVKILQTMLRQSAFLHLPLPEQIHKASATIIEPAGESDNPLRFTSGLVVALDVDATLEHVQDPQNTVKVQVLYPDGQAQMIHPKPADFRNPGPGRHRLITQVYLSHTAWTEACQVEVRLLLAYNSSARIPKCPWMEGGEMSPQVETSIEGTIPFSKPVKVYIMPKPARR
UniProt Q96PU8: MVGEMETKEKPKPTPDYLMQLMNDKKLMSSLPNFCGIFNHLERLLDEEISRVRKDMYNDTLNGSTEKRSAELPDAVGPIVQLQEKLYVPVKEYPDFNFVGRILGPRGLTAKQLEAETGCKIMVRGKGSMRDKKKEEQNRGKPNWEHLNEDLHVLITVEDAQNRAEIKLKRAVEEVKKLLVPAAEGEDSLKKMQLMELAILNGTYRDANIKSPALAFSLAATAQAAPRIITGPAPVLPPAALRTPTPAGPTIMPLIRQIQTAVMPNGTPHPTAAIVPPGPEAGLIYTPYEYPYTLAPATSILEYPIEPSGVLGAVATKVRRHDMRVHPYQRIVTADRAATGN
UniProt Q96HR8: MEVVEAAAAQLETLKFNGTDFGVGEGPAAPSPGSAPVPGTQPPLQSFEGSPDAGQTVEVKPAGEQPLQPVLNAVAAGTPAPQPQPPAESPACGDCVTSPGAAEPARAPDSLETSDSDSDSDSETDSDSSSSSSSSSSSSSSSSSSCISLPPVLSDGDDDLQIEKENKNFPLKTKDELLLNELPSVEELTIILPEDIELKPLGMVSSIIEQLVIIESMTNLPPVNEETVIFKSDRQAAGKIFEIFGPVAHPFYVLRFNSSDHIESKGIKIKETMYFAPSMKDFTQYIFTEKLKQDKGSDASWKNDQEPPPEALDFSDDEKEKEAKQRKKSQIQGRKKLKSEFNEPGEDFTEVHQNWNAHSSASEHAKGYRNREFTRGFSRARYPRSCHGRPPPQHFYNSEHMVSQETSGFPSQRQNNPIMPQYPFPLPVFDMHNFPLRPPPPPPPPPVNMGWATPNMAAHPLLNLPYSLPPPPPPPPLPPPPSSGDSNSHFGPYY
UniProt Q96GY3: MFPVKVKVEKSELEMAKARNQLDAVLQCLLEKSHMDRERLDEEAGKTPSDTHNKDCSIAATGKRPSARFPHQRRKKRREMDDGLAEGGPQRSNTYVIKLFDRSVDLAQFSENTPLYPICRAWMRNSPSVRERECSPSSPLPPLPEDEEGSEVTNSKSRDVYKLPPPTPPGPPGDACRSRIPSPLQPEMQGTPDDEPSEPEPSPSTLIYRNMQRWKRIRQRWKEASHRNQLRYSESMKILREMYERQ
UniProt Q96FF9: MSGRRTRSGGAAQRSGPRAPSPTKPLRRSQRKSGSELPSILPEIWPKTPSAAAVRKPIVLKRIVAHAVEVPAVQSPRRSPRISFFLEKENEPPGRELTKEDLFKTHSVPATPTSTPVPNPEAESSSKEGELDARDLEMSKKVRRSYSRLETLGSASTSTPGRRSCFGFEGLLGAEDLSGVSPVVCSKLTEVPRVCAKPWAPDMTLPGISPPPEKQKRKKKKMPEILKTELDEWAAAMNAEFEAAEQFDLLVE
UniProt Q96P16: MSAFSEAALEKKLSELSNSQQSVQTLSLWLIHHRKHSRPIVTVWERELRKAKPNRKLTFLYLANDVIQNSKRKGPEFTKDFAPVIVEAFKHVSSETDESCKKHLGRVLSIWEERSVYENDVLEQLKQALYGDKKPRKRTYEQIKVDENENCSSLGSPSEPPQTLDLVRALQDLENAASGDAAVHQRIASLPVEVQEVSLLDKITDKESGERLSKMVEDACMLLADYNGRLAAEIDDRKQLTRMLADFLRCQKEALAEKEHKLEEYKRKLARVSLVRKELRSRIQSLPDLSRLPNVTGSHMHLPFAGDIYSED
UniProt Q96NB2: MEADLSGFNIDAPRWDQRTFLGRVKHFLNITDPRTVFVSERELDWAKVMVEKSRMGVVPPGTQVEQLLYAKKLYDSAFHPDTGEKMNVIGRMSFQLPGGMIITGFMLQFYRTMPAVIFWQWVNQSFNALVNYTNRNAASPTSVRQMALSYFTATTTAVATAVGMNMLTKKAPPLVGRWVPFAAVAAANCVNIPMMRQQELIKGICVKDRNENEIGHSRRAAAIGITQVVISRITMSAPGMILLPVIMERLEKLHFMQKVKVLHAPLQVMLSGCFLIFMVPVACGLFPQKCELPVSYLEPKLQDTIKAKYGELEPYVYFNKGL

Target	NP40-soluble protein abundance (concentration: 1mM)	NP40-soluble protein abundance (concentration: 2mM)	NP40-soluble protein abundance (concentration: 4mM)	NP40-soluble protein abundance (concentration: 6mM)	NP40-soluble protein abundance (concentration: 8mM)	NP40-soluble protein abundance (concentration: 10mM)
UniProt Q96KA5 and related entries	0.996 ± 0.075	0.967 ± 0.038	0.979 ± 0.034	0.939 ± 0.068	0.964 ± 0.028	0.98 ± 0.035
PHF12 (UniProt Q96QT6)	1.22 ± 0.076	1.37 ± 0.15	1.44 ± 0.21	1.36 ± 0.033	1.27 ± 0.07	1.4 ± 0.033
MRPS24 (UniProt Q96EL2)	1.07 ± 0.099	0.953 ± 0.045	0.985 ± 0.019	0.874 ± 0.074	0.965 ± 0.071	0.897 ± 0.038
RMI2 (UniProt Q96E14)	0.949 ± 0.11	0.932 ± 0.098	0.98 ± 0.085	0.936 ± 0.016	0.958 ± 0.02	0.977 ± 0.046
Sirt1 (UniProt Q96EB6)	0.931 ± 0.042	0.951 ± 0.019	0.935 ± 0.021	0.963 ± 0.025	0.894 ± 0.014	0.899 ± 0.019
LTV1 (UniProt Q96GA3)	1.06 ± 0.065	1.02 ± 0.1	0.971 ± 0.089	1.06 ± 0.14	0.986 ± 0.07	0.994 ± 0.096
INTS4 (UniProt Q96HW7)	1.13 ± 0.039	1.11 ± 0.026	1.15 ± 0.08	1.13 ± 0.053	1.2 ± 0.055	1.19 ± 0.043
UniProt Q96PU8 and related entries	0.969 ± 0.074	0.956 ± 0.041	0.999 ± 0.017	0.975 ± 0.061	0.984 ± 0.018	0.934 ± 0.067
UniProt Q96HR8 and related entries	1.2 ± 0.19	1.11 ± 0.087	1.11 ± 0.071	1.18 ± 0.085	1.1 ± 0.036	1.13 ± 0.08
UniProt Q96RL7-4|Q96RL7 and related entries	1.05 ± 0.077	1.03 ± 0.074	1.06 ± 0.084	0.968 ± 0.089	1.06 ± 0.048	1.02 ± 0.061
LIN37 (UniProt Q96GY3)	0.949 ± 0.091	0.983 ± 0.075	0.969 ± 0.055	1.03 ± 0.056	1.03 ± 0.038	1.03 ± 0.12
CDCA5 (UniProt Q96FF9)	1.1 ± 0.098	1.06 ± 0.056	1.06 ± 0.029	1.07 ± 0.11	1.04 ± 0.052	1.05 ± 0.044
UniProt Q96P16 and related entries	0.995 ± 0.056	1.02 ± 0.015	1.03 ± 0.015	1.046 ± 0.0049	1.02 ± 0.028	0.982 ± 0.063
SFXN2 (UniProt Q96NB2)	0.974 ± 0.014	0.98 ± 0.035	0.98 ± 0.042	0.942 ± 0.087	1.02 ± 0.042	1.07 ± 0.19
UniProt Q96SN8 and related entries	1.08 ± 0.051	1.03 ± 0.039	1.04 ± 0.038	1.01 ± 0.14	1.02 ± 0.11	1.01 ± 0.069

A few values from above.
MRPS24 (UniProt Q96EL2) | NP40-soluble protein abundance (concentration: 4mM): 0.985 ± 0.019
LTV1 (UniProt Q96GA3) | NP40-soluble protein abundance (concentration: 1mM): 1.06 ± 0.065

Reference: the supplement of paper PMC6411743
